Some of these results come from one statement about several compounds together.
What was measured:
[1] = test system: Alternaria solani; experiment: Activity against early blight of tomato caused by Alternaria solani (protective spray test on potted tomato plants); assay type: in vivo; settings: 63 ppm active compound, sprayed one day before infection; tomato cultivar Goldene Prinzessin; visual rating after 5 days; untreated plants 80% infected
[2] = test system: Puccinia recondita; experiment: Curative activity against brown rust of wheat caused by Puccinia recondita (potted wheat seedlings); assay type: in vivo; settings: 63 ppm active compound, sprayed one day after inoculation (curative); wheat cultivar Kanzier; rating after 7 days; untreated plants 85 to 90% infected

SMILES | infection of the treated plants [1] | infection of the treated plants [2]
C[C@@H](Nc1c(-c2cc(Cl)ccc2Cl)c(Cl)nc2ncnn12)C(C)(C)C [I-33] | at most 20% | 
COc1cc(Cl)c(-c2c(Cl)nc3ncnn3c2N[C@H](C)C(C)(C)C)cc1F [I-24] | at most 20% | at most 20%
CC(C)C(C)Nc1c(-c2cc(Cl)ccc2Cl)c(Cl)nc2ncnn12 (racemic) [I-34] | at most 20% | at most 20%
C[C@H](Nc1c(-c2cc(F)ccc2Cl)c(Cl)nc2ncnn12)C(F)(F)F [I-13] | at most 20% | at most 20%
COc1cc(Cl)c(-c2c(Cl)nc3ncnn3c2N[C@@H](C)C(F)(F)F)cc1F [I-29] | at most 20% | at most 20%
COc1cc(Cl)c(-c2c(Cl)nc3ncnn3c2N(C)CC(F)(F)F)cc1F [I-28] | at most 20% | 
CCC(C)Nc1c(-c2cc(F)c(OC)cc2Cl)c(Cl)nc2ncnn12 (racemic) [I-20] |  | at most 20%
COc1cc(Cl)c(-c2c(Cl)nc3ncnn3c2NC(C)C(C)(C)C)cc1F (racemic) [I-18] |  | at most 20%
CC(Nc1c(-c2cc(Cl)ccc2Cl)c(Cl)nc2ncnn12)C(F)(F)F (racemic) [I-38] | at most 20% | at most 20%
C=C(C)CN(CC)c1c(-c2cc(F)ccc2Cl)c(Cl)nc2ncnn12 [I-1] | at most 20% | 
Fc1ccc(Cl)c(-c2c(Cl)nc3ncnn3c2NCC(F)(F)F)c1 [I-15] | at most 20% | at most 20%
CCC(C)Nc1c(-c2cc(Cl)ccc2Cl)c(Cl)nc2ncnn12 (racemic) [I-36] |  | at most 20%
CC[C@@H](C)Nc1c(-c2cc(Cl)ccc2Cl)c(Cl)nc2ncnn12 [I-37] |  | at most 20%
COc1cc(Cl)c(-c2c(Cl)nc3ncnn3c2NC(C)C(C)C)cc1F (racemic) [I-19] |  | at most 20%
C[C@H](Nc1c(-c2cc(Cl)ccc2Cl)c(Cl)nc2ncnn12)C(F)(F)F [I-39] | at most 20% | at most 20%
COc1cc(Cl)c(-c2c(Cl)nc3ncnn3c2N2CCC(C)CC2)cc1F [I-16] |  | at most 20%
COc1cc(Cl)c(-c2c(Cl)nc3ncnn3c2NCC(F)(F)F)cc1F [I-27] | at most 20% | at most 20%
CCC(C)Nc1c(-c2cc(F)ccc2Cl)c(Cl)nc2ncnn12 (stereo not drawn) [I-3, 5-chloro-6-(2-chloro-5-fluorophenyl)-7-but-2-ylamino-[1,2,4]-triazolo[1,5-a]pyrimidine] |  | at most 20%
C=C(C)CN(CC)c1c(-c2cc(Cl)ccc2Cl)c(Cl)nc2ncnn12 [I-30] | at most 20% | 
CC1CCN(c2c(-c3cc(Cl)ccc3Cl)c(Cl)nc3ncnn23)CC1 [I-31] | at most 20% | 
COc1cc(Cl)c(-c2c(Cl)nc3ncnn3c2NC(C)C(F)(F)F)cc1F (racemic) [I-26] | at most 20% | at most 20%
FC(F)(F)CNc1c(-c2cc(Cl)ccc2Cl)c(Cl)nc2ncnn12 [I-40] |  | at most 20%
CC(Nc1c(-c2cc(Cl)ccc2Cl)c(Cl)nc2ncnn12)C(C)(C)C (racemic) [I-32] | at most 20% | 
COc1cc(Cl)c(-c2c(Cl)nc3ncnn3c2N[C@H](C)C(C)C)cc1F [I-25] | at most 20% | at most 20%
CC(C)[C@@H](C)Nc1c(-c2cc(Cl)ccc2Cl)c(Cl)nc2ncnn12 [I-35] | at most 20% | at most 20%

Source: patent US20080227795A1, “6(2-Chloro-5-Halophenyl)Triazolopyrimidines, Their Preparation And Their Use For Controlling Harmful Fungi, And Compositions Comprising These Compounds” (BASF Aktiengesellschaft, priority 2004, published 2008)
